Values quoted from earlier work as cited in publication PMC5858514 (Theranostics, 2018).
Values after ≈ are worked out from the molar mass of the structure shown.

Settings: not among the compounds measured, no reference given; cited from earlier work

In the case of CC(=O)O[C@H]1C(=O)[C@@]2(C)[C@H]([C@H](OC(=O)c3ccccc3)[C@]3(O)C[C@H](OC(=O)[C@H](O)[C@@H](NC(=O)c4ccccc4)c4ccccc4)C(C)=C1C3(C)C)[C@]1(OC(C)=O)CO[C@@H]1C[C@@H]2O [PTX, paclitaxel], the water solubility is given as roughly 0.4 µg/mL (≈ 0.468 µM).
